Assay results from patent US20150203575A1.
Results are given in words; binding and its absence hold for the method and conditions named. Some binding calls cover weakened binding; strength is not graded here.

Protein sequences, listed by entry. Tags and fused reporters are not part of them. Lines headed by an entry give the natural chain unless they say otherwise; changes in a name come on top.
UniProt Q16651: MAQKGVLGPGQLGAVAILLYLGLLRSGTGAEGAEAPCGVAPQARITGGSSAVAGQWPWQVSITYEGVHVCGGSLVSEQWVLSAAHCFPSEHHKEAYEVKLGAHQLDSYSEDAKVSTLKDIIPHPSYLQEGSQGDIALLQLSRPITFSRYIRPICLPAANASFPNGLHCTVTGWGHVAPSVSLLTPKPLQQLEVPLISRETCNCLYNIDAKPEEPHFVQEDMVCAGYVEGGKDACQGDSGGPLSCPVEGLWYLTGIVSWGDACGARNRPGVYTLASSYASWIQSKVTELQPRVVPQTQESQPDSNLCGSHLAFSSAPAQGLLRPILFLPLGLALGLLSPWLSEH
UniProt Q9Y286: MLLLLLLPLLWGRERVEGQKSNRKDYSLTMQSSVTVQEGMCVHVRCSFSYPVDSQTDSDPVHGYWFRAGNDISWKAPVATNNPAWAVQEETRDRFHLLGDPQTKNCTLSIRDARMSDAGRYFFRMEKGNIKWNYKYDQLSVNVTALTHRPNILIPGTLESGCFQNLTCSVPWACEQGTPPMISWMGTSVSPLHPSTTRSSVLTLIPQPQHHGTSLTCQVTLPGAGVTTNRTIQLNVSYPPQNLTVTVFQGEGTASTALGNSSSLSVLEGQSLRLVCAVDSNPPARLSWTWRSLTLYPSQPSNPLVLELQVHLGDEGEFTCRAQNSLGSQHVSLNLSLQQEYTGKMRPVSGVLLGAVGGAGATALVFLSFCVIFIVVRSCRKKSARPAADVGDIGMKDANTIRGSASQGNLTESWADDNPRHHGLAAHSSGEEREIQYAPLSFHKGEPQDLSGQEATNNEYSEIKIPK
UniProt P06734: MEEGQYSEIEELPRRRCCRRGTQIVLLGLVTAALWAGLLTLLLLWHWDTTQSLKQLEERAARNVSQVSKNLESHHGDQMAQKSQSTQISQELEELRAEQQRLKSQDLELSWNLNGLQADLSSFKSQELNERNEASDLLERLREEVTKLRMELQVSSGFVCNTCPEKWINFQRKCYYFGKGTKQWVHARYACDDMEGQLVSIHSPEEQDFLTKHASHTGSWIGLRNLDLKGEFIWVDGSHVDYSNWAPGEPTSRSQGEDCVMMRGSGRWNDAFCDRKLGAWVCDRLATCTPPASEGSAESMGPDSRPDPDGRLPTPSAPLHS
UniProt Q9UKJ1: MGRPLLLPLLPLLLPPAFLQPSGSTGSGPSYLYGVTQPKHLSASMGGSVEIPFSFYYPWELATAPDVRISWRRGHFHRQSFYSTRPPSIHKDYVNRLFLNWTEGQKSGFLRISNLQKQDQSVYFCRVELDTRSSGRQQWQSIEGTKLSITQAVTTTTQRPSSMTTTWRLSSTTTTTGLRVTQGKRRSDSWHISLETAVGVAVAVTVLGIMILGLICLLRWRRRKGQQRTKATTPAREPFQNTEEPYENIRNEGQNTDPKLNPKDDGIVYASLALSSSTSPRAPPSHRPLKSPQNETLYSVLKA
UniProt Q2YFS2: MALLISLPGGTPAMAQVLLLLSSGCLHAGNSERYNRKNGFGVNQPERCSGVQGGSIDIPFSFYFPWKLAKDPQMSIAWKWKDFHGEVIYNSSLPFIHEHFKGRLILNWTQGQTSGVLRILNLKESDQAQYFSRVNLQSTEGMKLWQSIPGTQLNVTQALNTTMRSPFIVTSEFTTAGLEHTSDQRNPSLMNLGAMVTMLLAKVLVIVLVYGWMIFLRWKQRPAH

Key:
[1] = biological target: T1, DAG1 expressed on cells (human) (UniProt Q14118); experiment: cDNA expression library screen with PILRα-AP supernatant on COS7 transfectants; positive clones further analysed by FACS
T1 sequence: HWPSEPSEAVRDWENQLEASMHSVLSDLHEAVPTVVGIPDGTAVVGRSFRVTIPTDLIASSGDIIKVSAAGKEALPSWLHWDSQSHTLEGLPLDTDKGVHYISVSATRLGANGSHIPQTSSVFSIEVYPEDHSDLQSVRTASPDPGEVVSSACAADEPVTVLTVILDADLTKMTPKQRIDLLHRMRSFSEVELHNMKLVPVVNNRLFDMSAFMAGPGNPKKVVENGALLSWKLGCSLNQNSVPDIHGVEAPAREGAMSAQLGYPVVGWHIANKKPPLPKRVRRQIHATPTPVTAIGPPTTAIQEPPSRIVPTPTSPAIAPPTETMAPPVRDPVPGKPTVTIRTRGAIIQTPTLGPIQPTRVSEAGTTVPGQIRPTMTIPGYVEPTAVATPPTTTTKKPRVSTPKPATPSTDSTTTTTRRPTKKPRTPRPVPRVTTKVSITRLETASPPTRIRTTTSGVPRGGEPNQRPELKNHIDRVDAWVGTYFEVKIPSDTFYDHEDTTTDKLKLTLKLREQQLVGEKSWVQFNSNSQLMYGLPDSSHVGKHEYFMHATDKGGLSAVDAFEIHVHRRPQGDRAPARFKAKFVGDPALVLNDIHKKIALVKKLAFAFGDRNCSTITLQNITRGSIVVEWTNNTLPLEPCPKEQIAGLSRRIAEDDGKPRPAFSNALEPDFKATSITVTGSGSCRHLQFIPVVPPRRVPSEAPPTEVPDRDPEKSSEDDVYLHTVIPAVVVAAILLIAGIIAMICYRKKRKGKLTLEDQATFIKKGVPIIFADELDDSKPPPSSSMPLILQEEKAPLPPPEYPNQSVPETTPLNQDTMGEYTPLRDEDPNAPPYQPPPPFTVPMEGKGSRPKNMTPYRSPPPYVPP

[2] = biological target: PSS8 expressed on cells (human) (UniProt Q16651); experiment: as above
[3] = biological target: T2, SIGLEC7 expressed on cells (human) (UniProt Q9Y286); experiment: as above
T2 sequence: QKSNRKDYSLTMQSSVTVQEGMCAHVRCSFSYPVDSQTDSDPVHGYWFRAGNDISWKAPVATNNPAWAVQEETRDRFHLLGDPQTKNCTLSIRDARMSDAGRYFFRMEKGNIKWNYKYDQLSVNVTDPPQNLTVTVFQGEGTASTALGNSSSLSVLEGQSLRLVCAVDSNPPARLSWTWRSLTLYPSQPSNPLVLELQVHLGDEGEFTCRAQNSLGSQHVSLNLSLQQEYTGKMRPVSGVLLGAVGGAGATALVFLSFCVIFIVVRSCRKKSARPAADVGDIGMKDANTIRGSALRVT

[4] = biological target: FceRII expressed on cells (human) (UniProt P06734); experiment: binding to ligand transfectants (FIG. 8C)
[5] = biological target: FceRII expressed on cells (human) (UniProt P06734); experiment: binding to ligand transfectants (FIG. 9C)

Row | binding [1] | binding [2] | binding [3] | binding [4] | binding [5] | Substance
1 | binds | binds | binds |  |  | hPILRα-AP (from UniProt Q9UKJ1 20-196)
2 |  |  |  | binds | binds | mPILRβ (from UniProt Q2YFS2 29-195) (receptor)
